Data: paper PMC11481501
These are yes or no findings as the source states them, for the method shown. Binding seen in cells or lysates may run through a third protein. Some results given as binding are weak or reduced against the parent protein; the word gives no strength.

Protein sequences, listed by entry. Tags and fused reporters are not part of them. Residues count along the entry.
UniProt P19712, residues 2273-2336: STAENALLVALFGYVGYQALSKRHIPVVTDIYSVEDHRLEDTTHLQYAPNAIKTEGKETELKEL

T1: PHGDH-K364R (UniProt A5GFY8)
T1 sequence: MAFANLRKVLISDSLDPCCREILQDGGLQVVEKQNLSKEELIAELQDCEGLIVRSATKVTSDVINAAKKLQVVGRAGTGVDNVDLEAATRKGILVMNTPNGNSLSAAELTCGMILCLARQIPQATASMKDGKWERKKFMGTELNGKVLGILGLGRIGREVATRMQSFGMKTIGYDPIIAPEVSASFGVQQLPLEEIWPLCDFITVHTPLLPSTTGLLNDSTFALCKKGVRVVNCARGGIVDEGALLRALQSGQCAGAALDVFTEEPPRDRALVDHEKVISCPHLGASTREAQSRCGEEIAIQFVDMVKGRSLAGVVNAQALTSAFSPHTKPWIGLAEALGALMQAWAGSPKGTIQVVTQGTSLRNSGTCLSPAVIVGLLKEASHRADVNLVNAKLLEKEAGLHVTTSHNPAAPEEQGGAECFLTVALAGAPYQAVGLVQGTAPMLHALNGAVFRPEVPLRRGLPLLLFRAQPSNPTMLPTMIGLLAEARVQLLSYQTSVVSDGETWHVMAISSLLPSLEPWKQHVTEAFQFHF


Legend:
[1] = target: PHGDH (exogenous, tag not stated) (UniProt A5GFY8); experiment: co-IP
[2] = target: endogenous PHGDH (pig (endogenous in PK-15)) (UniProt A5GFY8); experiment: co-IP; expressed CSFV NS4A and endogenous PHGDH; cells not given
PHGDH-K364R = target: T1, PHGDH-K364R; experiment: co-IP

| binding (PHGDH-K364R) | Molecule | binding [1] | binding [2] |
| --- | --- | --- | --- |
| – | CSFV NS4A protein (from UniProt P19712 2273-2336) | binds | binds |
| no binding | TRAF6 (enzyme, UniProt A7XUJ6 1-541) MSLLHCENSCGSSQSESDCCAAMAASSCGAAAKDDGVSGTASTGNLSSSFMEEIQGYDVEFDPPLESKYECPICLMALREAVQTPCGHRFCKACIIKSIRDAGHKCPVDNEILLENQLFPDNFAKREILSLTVKCPNVGCLHKMELRHLEDHQAHCEFALMNCPQCQRPFQKCQLNIHILKECPRRQVSCVNCAVSMAFEDKEIHDQNCPLANVICEYCNTVLIREQMPNHYDLDCPTAPVPCTFSTFGCHEKMQRNHLARHLQENTQSHMRMMAQALQGLSLAVAPVPQRDMLPYDSSPLSRISSGCCSDQNFQETIQQLEGRLVRQDHQIRELTAKMETQSMYVSELKRTIRSLEDKVAEIEAQQCNGIYIWKIGNFGMHLKSQEEEKPVVIHSPGFYTGKPGYKLCMRLHLQLPTAQRCANYISLFVHTMQGEYDSHLPWPFQGTIRLTILDQSEAPIRQNHEEIMDAKPELLAFQRPTIPRNPKGFGYVTFMHLDALRQRTFIKDDTLLVRCEVSTRFDMGSLRREGFQPRSTDSGT | – | – |
